The supplement of paper PMC10849652
This is one part of the list.

The chains behind the UniProt entries cited, without tags or fusion partners. Where a name states a change or a piece, a line headed by the entry shows the natural chain unless it says otherwise.
UniProt Q9UPY3: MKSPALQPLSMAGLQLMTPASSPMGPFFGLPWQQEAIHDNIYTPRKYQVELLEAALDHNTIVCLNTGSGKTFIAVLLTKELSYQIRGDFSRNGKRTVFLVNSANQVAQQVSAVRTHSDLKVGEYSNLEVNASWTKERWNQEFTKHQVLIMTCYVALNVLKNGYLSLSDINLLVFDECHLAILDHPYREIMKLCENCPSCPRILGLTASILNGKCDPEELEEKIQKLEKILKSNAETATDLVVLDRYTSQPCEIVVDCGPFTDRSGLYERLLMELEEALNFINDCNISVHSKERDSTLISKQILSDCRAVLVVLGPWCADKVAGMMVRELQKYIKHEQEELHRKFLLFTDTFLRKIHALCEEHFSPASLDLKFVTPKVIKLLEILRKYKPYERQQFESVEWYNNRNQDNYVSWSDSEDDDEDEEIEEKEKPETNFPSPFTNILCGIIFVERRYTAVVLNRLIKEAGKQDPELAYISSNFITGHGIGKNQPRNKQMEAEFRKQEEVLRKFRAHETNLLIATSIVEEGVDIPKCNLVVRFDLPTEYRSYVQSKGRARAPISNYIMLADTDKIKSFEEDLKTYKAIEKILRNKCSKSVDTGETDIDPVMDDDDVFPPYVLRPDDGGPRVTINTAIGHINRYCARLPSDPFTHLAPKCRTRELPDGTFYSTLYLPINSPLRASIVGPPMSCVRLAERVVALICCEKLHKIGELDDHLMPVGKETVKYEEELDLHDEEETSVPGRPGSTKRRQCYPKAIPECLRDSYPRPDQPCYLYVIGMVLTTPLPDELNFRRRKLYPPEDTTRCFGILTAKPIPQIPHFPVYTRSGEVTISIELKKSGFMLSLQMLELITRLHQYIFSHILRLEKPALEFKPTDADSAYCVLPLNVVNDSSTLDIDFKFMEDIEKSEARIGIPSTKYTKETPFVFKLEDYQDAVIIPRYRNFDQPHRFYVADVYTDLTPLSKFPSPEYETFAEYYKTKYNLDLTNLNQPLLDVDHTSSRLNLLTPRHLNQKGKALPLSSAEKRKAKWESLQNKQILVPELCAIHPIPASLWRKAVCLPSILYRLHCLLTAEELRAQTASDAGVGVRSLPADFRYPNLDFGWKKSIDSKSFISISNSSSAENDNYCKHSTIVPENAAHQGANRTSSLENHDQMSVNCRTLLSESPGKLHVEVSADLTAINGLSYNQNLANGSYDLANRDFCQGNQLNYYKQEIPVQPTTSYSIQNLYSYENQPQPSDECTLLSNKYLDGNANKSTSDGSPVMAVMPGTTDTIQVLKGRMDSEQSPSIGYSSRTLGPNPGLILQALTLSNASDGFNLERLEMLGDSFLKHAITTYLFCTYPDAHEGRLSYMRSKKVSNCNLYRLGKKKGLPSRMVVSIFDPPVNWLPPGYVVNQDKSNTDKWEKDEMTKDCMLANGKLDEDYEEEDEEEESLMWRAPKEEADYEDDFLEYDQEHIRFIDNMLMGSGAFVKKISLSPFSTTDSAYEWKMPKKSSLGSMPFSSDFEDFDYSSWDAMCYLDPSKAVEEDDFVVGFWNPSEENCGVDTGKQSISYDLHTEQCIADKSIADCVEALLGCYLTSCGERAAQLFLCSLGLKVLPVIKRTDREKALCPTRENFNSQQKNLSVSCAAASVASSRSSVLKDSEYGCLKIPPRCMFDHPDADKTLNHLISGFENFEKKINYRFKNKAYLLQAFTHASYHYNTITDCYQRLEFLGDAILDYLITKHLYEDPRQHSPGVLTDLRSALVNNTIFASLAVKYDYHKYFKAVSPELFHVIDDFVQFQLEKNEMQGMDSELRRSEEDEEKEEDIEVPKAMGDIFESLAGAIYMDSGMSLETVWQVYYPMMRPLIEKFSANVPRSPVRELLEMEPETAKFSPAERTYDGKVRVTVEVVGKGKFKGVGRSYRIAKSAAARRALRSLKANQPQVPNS
UniProt Q8IX18: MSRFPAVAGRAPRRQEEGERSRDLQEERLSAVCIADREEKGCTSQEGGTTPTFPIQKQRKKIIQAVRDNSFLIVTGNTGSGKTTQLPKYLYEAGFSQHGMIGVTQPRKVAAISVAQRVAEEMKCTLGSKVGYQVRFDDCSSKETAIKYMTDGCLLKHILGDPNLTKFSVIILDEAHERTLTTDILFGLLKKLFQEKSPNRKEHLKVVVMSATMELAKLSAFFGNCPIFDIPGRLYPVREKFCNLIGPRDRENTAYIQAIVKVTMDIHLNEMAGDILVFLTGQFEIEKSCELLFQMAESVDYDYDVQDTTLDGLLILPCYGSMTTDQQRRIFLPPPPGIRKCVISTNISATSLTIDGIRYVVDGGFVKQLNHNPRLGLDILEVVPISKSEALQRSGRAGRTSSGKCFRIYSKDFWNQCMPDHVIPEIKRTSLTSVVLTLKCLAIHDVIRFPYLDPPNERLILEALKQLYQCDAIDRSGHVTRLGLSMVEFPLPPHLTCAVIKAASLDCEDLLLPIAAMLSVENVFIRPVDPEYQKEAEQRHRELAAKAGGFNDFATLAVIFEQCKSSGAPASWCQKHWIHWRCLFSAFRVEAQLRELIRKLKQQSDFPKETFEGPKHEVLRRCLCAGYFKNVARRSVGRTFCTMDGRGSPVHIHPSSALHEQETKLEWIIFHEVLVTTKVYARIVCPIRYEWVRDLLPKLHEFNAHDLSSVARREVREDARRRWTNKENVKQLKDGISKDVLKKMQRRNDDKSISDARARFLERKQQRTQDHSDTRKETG
UniProt Q6UX07: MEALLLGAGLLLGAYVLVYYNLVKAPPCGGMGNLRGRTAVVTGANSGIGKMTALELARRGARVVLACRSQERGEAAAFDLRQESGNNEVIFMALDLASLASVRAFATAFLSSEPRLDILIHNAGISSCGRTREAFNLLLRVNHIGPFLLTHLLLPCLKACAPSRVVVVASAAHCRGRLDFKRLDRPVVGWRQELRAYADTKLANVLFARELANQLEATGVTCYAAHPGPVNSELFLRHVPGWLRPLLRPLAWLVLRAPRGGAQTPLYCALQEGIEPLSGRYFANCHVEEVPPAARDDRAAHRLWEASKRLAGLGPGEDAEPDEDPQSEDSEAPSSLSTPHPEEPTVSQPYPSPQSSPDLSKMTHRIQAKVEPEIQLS
UniProt O76075: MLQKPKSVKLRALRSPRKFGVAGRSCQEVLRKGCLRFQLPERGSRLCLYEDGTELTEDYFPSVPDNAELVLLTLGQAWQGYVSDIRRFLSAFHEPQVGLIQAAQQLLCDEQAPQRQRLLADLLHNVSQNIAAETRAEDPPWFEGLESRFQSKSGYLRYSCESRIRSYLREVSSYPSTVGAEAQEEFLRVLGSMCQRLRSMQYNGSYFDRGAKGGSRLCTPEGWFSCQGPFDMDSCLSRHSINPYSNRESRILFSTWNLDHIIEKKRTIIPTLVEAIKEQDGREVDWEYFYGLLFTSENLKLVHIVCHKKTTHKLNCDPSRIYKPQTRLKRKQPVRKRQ
UniProt Q5JSL3: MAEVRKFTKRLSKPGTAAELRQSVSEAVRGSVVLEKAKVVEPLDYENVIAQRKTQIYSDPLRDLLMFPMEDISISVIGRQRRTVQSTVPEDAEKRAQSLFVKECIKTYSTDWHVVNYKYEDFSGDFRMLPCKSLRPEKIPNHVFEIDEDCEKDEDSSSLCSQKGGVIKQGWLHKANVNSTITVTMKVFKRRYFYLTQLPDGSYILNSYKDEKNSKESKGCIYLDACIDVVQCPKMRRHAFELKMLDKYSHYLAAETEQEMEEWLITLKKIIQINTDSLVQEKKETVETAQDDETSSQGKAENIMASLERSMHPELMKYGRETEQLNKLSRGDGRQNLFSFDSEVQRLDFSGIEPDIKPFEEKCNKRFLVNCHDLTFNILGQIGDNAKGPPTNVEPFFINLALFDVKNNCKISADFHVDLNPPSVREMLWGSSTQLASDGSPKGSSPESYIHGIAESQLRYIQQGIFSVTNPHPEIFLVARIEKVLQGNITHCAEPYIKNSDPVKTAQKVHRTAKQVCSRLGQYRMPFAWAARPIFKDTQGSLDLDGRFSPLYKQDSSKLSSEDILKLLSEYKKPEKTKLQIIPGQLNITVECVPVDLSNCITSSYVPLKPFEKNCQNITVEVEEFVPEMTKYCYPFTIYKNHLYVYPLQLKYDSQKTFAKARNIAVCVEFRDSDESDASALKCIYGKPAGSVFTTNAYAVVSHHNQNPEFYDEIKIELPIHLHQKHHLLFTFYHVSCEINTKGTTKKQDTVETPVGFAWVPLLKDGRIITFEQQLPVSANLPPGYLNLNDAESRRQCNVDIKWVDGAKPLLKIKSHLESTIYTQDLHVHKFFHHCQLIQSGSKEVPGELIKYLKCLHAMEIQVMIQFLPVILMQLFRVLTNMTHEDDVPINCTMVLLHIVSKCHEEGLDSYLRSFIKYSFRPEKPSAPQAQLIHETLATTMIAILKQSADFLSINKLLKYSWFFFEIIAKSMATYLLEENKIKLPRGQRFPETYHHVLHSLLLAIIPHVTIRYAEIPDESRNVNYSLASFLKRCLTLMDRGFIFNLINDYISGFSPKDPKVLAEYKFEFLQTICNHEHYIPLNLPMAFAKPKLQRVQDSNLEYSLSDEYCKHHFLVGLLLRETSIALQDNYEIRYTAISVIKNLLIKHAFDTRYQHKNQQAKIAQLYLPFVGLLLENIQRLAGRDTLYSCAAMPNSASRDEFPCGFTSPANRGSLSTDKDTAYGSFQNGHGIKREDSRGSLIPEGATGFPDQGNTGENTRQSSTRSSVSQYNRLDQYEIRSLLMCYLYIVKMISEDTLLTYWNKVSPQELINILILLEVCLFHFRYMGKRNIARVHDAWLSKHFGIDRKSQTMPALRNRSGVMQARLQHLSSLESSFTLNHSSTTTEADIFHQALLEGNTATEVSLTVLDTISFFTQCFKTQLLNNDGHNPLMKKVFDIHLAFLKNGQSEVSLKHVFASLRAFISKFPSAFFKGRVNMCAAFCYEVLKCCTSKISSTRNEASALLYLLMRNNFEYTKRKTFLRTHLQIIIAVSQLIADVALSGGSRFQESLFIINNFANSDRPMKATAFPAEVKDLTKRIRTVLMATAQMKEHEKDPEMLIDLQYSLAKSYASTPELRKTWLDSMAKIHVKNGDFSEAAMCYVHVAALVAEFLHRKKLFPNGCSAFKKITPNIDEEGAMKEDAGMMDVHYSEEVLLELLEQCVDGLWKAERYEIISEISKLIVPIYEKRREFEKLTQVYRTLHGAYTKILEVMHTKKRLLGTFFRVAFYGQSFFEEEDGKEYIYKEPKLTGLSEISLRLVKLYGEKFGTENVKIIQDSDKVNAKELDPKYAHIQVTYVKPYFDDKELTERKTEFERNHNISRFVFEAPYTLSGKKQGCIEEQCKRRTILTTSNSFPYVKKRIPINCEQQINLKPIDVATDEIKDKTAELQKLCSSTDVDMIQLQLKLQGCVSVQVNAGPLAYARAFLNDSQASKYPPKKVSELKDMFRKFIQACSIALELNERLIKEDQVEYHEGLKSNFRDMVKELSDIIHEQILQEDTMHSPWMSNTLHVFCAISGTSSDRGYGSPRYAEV
UniProt Q9H2U1: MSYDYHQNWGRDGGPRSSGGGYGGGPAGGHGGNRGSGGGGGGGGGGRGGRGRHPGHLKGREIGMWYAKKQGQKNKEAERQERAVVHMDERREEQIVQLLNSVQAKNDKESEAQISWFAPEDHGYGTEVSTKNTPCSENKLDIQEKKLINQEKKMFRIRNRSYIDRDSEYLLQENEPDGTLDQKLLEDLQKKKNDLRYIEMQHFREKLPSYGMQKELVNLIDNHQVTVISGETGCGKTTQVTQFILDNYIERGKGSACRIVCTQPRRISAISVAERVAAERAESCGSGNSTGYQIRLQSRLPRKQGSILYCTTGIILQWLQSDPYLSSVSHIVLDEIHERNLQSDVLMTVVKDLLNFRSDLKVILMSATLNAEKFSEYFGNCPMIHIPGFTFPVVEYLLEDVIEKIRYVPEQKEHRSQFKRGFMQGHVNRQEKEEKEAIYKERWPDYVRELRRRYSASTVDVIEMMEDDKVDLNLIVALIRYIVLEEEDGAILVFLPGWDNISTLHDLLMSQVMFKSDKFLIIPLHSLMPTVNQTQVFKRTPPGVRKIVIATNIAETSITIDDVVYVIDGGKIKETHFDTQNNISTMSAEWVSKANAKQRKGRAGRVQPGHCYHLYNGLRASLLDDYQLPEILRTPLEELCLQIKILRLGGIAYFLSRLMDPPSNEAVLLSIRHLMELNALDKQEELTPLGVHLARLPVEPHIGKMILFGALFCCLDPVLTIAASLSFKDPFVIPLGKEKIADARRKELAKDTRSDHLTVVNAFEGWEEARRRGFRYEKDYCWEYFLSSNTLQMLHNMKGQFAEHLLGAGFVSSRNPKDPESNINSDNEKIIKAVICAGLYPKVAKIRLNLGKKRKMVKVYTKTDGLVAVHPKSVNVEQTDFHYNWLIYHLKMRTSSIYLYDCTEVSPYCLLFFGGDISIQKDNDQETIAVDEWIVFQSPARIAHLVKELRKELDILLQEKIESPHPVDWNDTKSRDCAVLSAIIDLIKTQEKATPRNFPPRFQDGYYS

Experiments:
Assay in all cases: log2 fold change, soluble protein after heating vs DMSO (PISA); higher = thermal stabilisation; K562 lysate, 10 uM; active = over 0.2 and 3.5 SD of the protein, either way, in both replicates (recomputed)
[1] = compound: C=CC(=O)N1CCC[C@@H](n2nc(-c3ccc(Oc4ccccc4)cc3)c3c(N)ncnc32)C1 [ibrutinib]
Procedure, shortened: (§1)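 To prepare the extract, K562 pellets were dounce-homogenised in PBS pH 7.4 with 1 mM MgCl2, giving crude material at 1 mg/mL protein. This was treated with 10 μM compound for 30 min, then heated in aliquots for 3 min over 48°C-58°C before pooling and addition of NP-40 to 0.5% at 4°C. Centrifugation at 21,000xg for 90 min left soluble protein in the supernatant, which TMTpro 16plex LC-MS/MS quantified with equalised channel sums. Results are log-two fold changes in thermal stability compared with solvent controls, from duplicates.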

[2] = compound: CC(=O)c1cnc2ccc(-c3cc(Cl)c(O)c(Cl)c3)nc2c1N[C@H]1CC[C@H](CN(C)C)CC1
Procedure, shortened: as §1

[3] = compound: CC(C)(C)Cn1c(N)nc2ccc(-c3[nH]c(C(C)(C)C)nc3-c3ccc(F)cc3)nc21 [ralimetinib]
Procedure, shortened: as §1

[4] = compound: CC(C)(O)CC(=O)NCCn1ccc2ncnc(Nc3ccc(Oc4cccc(C(F)(F)F)c4)c(Cl)c3)c21
Procedure, shortened: as §1

[5] = compound: CC(C)C1=C2N=C(C=C(N2N=C1)NCC3=CC=CC=C3)NCCCCCCN
Procedure, shortened: as §1

[6] = compound: CC1=C(C(CC(=O)N1)C2=CC=C(C=C2)C(F)(F)F)C(=O)NC3=C(C=C4C(=C3)C=NN4)F
Procedure, shortened: as §1

[7] = compound: CC1=C(C2=C(C=C1)C(=O)C3=CC=CC=C3N2CCCN)C
Procedure, shortened: as §1

[8] = compound: CC1=C(C=C(C=C1)NC(=O)C2=CC(=CC=C2)C(C)(C)C#N)NC3=CC4=C(C=C3)N=CN(C4=O)C
Procedure, shortened: as §1

[9] = compound: CC1=C(C=C(C=C1)NC(=O)C2=CC(=CC=C2)N(C)C)NC(=O)C3=CC=C(C=C3)O
Procedure, shortened: as §1

[10] = compound: CC1=CC=C(C=C1)SC2=C3C=C(SC3=CN=C2)C(=O)N
Procedure, shortened: as §1

Measured: log2 fold change

DNAH10 (UniProt Q8IVF4)
inactive: [1] 0.038 | [2] -0.017 | [3] -0.123 | [4] -0.112 | [5] -0.015 | [6] -0.04 | [7] -0.069 | [8] 0.137 | [9] -0.014 | [10] -0.051

DIS3 (UniProt Q9Y2L1)
inactive: [1] 0.011 | [2] 0.004 | [3] 0.006 | [4] 0 | [5] 0.035 | [6] -0.017 | [7] -0.003 | [8] 0.009 | [9] 0.005 | [10] 0.018

DHRS2 (UniProt Q13268)
inactive: [1] 0.026 | [2] 0.025 | [3] 0.043 | [4] -0.003 | [5] -0.017 | [6] -0.003 | [7] -0.003 | [8] -0.041 | [9] 0.006 | [10] 0.011

DOK3 (UniProt Q7L591)
inactive: [1] 0.071 | [2] -0.023 | [3] 0.024 | [4] -0.079 | [5] 0.049 | [6] 0.042 | [7] 0.043 | [8] -0.015 | [9] -0.071 | [10] 0.013

DHRS4 (UniProt Q9BTZ2)
inactive: [1] -0.035 | [2] 0.004 | [3] 0.058 | [4] -0.014 | [5] 0.038 | [6] -0.001 | [7] -0.026 | [8] -0.031 | [9] 0.056 | [10] -0.093

DMTF1 (UniProt Q9Y222)
inactive: [1] 0.012 | [2] 0.115 | [3] 0.004 | [4] 0.013 | [5] -0.033 | [6] 0.004 | [7] -0.099 | [8] -0.016 | [9] -0.007 | [10] 0.05

DNAJB12 (UniProt Q9NXW2)
inactive: [1] 0.064 | [2] 0.069 | [3] 0.026 | [4] -0.081 | [5] 0.033 | [6] 0.005 | [7] 0.088 | [8] 0.068 | [9] 0.042 | [10] 0.036

DLG3 isoform 2 (UniProt Q92796)
inactive: [1] 0.034 | [2] 0.009 | [3] 0.124 | [4] 0.042 | [5] -0.005 | [6] 0.055 | [7] -0.009 | [8] -0.023 | [9] -0.033 | [10] 0.024

DICER1 (UniProt Q9UPY3)
inactive: [1] -0.011 | [2] 0.037 | [3] 0.019 | [4] -0.055 | [5] 0.012 | [6] 0.044 | [7] 0.003 | [8] 0.018 | [9] 0.013 | [10] 0

DHX40 (UniProt Q8IX18)
inactive: [1] -0.011 | [2] -0.032 | [3] 0.035 | [4] 0.03 | [5] 0 | [6] -0.091 | [7] -0.027 | [8] -0.019 | [9] 0.016 | [10] -0.008

DHRS13 (UniProt Q6UX07)
inactive: [1] -0.106 | [2] -0.003 | [3] 0.094 | [4] -0.111 | [5] -0.073 | [6] 0.082 | [7] -0.292 | [8] 0.03 | [9] -0.009 | [10] 0.111

DNAJC9 (UniProt Q8WXX5)
inactive: [1] 0.013 | [2] 0.005 | [3] 0.023 | [4] 0.024 | [5] 0.017 | [6] 0.013 | [7] 0.005 | [8] 0.023 | [9] 0.005 | [10] 0.003

DFFB (UniProt O76075)
inactive: [1] 0.076 | [2] -0.01 | [3] 0.054 | [4] -0.068 | [5] -0.027 | [6] 0.044 | [7] 0.08 | [8] 0.033 | [9] -0.07 | [10] -0.039

DHX16 (UniProt O60231)
inactive: [1] -0.015 | [2] 0.004 | [3] 0.014 | [4] -0.006 | [5] 0.029 | [6] 0.009 | [7] -0.011 | [8] 0.008 | [9] 0.003 | [10] 0.042

DNAJC5 (UniProt Q9H3Z4)
inactive: [1] -0.029 | [2] -0.072 | [3] -0.013 | [4] -0.043 | [5] -0.044 | [6] 0.06 | [7] -0.008 | [8] 0.048 | [9] -0.036 | [10] -0.116

DLGAP4 (UniProt Q9Y2H0)
inactive: [1] 0.017 | [2] 0.004 | [3] 0.02 | [4] 0.01 | [5] -0.024 | [6] -0.011 | [7] 0.018 | [8] 0.062 | [9] -0.009 | [10] -0.023

DHRS3 (UniProt O75911)
inactive: [1] 0.064 | [2] -0.07 | [3] 0.048 | [4] -0.023 | [5] 0.034 | [6] -0.001 | [7] -0.069 | [8] -0.015 | [9] -0.046 | [10] 0.045

DIAPH1 (UniProt O60610)
inactive: [1] -0.028 | [2] -0.004 | [3] -0.006 | [4] 0.005 | [5] -0.01 | [6] -0.009 | [7] 0.003 | [8] -0.004 | [9] 0.001 | [10] 0.004

DHX30 isoform 2 (UniProt Q7L2E3)
inactive: [1] -0.008 | [2] -0.033 | [3] 0.004 | [4] -0.02 | [5] -0.002 | [6] 0 | [7] -0.02 | [8] 0.012 | [9] 0.034 | [10] -0.008

DNPH1 (UniProt H0Y8X4)
inactive: [1] -0.029 | [2] 0.003 | [3] 0.037 | [4] 0.001 | [5] -0.015 | [6] 0.006 | [7] -0.032 | [8] -0.001 | [9] 0.01 | [10] 0.001

DOCK11 (UniProt Q5JSL3)
inactive: [1] -0.01 | [2] 0.004 | [3] 0.024 | [4] -0.049 | [5] 0.029 | [6] -0.019 | [7] -0.002 | [8] 0.032 | [9] 0.009 | [10] 0.022

DIS3L2 (UniProt Q8IYB7)
inactive: [1] 0.03 | [2] 0.006 | [3] 0.089 | [4] 0.025 | [5] 0 | [6] -0.01 | [7] 0.019 | [8] -0.049 | [9] -0.025 | [10] 0.014

DPCD (UniProt Q9BVM2)
inactive: [1] 0.011 | [2] -0.059 | [3] 0.044 | [4] -0.078 | [5] 0.016 | [6] 0.018 | [7] -0.015 | [8] -0.004 | [9] 0.015 | [10] -0.054

DHX36 (UniProt Q9H2U1)
inactive: [1] 0.021 | [2] -0.013 | [3] 0.027 | [4] -0.016 | [5] -0.013 | [6] -0.001 | [7] 0.016 | [8] -0.022 | [9] -0.019 | [10] 0.007

DHX8 (UniProt Q14562)
inactive: [1] -0.002 | [2] 0.007 | [3] 0.015 | [4] 0.006 | [5] 0 | [6] 0.079 | [7] 0.011 | [8] -0.037 | [9] 0.035 | [10] 0.02

DOLPP1 (UniProt Q86YN1)
inactive: [1] -0.004 | [2] -0.016 | [3] 0.016 | [4] -0.068 | [5] 0.096 | [6] 0.027 | [7] 0.022 | [8] 0.029 | [9] 0.092 | [10] -0.005

DOCK7 (UniProt Q96N67)
inactive: [1] -0.117 | [2] -0.009 | [3] 0.077 | [4] -0.054 | [5] 0.021 | [6] 0.03 | [7] -0.078 | [8] 0.009 | [9] 0.065 | [10] -0.028

DNAJB14 (UniProt Q8TBM8)
inactive: [1] 0.053 | [2] -0.022 | [3] 0.042 | [4] -0.12 | [5] 0.012 | [6] 0.07 | [7] -0.043 | [8] 0.062 | [9] -0.012 | [10] -0.12

Fetched one by one from above, two records:
DIS3L2 (UniProt Q8IYB7)
inactive: [1] 0.03 | [2] 0.006 | [3] 0.089 | [4] 0.025 | [5] 0 | [6] -0.01 | [7] 0.019 | [8] -0.049 | [9] -0.025 | [10] 0.014

DHX40 (UniProt Q8IX18)
inactive: [1] -0.011 | [2] -0.032 | [3] 0.035 | [4] 0.03 | [5] 0 | [6] -0.091 | [7] -0.027 | [8] -0.019 | [9] 0.016 | [10] -0.008
